Source: patent US20090143279A1 (priority 2007, published 2009)

Test system: nuOXPHOS transcripts
Format: cell-based, mouse

Structure (SMILES): Cc1cc(/C=C/c2ccc3cc(N(C)C)ccc3[n+]2C)c(C)n1-c1ccccc1 [pyrvinium pamoate, reference compound]
- nucOXPHOS Z: −2.08
